Experimental data: US20250075147A1, “FRAGRANCE AND FLAVOR COMPOSITIONS COMPRISING NEW FLAVOR AND FRAGRANCE INGREDIENTS” (priority 2023, published 2025)
Where two headings read alike, the source gives them in different places.

Assays:
odor evaluation panel = assay: Odor evaluation panel rating of odorants by Rate-All-That-Apply (RATA) method with 55-word odor lexicon, plus intensity and pleasantness; set-up: species or system human; conditions: for Fruity: mean panelist score for odor label fruity (RATA)
[1] = Evaluation by trained and/or certified flavor or fragrance chemists or master perfumers; categorization by commercial prospect
[2] = mean panelist score for odor label floral (RATA)
[3] = mean panelist score for odor label spicy (RATA)
[4] = mean panelist score for odor label sweet (RATA)
[5] = mean panelist score for odor pleasantness
[6] = category of commercial prospect, (A) highest > (B) > (C) > (D) lowest, (E) requires further study

Row | Structure (SMILES) | Floral (odor evaluation panel; [2]) | Fruity (odor evaluation panel) | Spicy (odor evaluation panel; [3]) | Sweet (odor evaluation panel; [4]) | Pleasantness (odor evaluation panel; [5]) | Rating [1, 6] | Floral (odor evaluation panel) | Pleasantness (odor evaluation panel) | Spicy (odor evaluation panel) | Sweet (odor evaluation panel) | Rating [1]
1 | C=CC(O)C#CC(C)(C)C (centres unmarked) [Compound 277, 6,6-dimethylhept-1-en-4-yn-3-ol] | 0.281 | 0 | 0.375 | 0.188 | 4.372 | (D) |  |  |  |  | 
2 | CN(C)CC#N [Compound 278, 2-(dimethylamino)acetonitrile] | 0.031 | 0.062 | 0 | 0.062 | 3.147 | (D) |  |  |  |  | 
3 | CCNCCC#N [Compound 281] | 0.031 | 0 | 0.062 | 0.281 | 3.497 | (D) |  |  |  |  | 
4 | Cc1ccc2ocnc2c1 [Compound 282, 5-methyl-1,3-benzoxazole] | 0.088 | 0.059 | 0.735 | 0.971 | 4.512 | (D) |  |  |  |  | 
5 | COC(=O)CCC(C(C)=O)C(C)=O [Compound 285, methyl 4-acetyl-5-oxohexanoate] | 0 | 0 | 0.219 | 0 | 4.834 | (A) |  |  |  |  | 
6 | Cc1ccc(CC#N)cc1 [Compound 290, 2-(4-methylphenyl)acetonitrile] | 0.688 | 0.688 | 0.781 | 1.344 | 4.997 | (E) |  |  |  |  | 
7 | N#CC1CC2C=CC1C2 (centres unmarked) [Compound 294, bicyclo[2.2.1]hept-5-ene-2-carbonitrile] | 0.583 | 0.75 | 0.056 | 0.861 |  | (D) |  |  |  |  | 
8 | CCOC(=O)C1CCCCN1C(=O)OC(C)(C)C (centres unmarked) [Compound 295, 1-O-tert-butyl 2-O-ethyl piperidine-1,2-dicarboxylate] | 0.765 | 1.706 | 0.235 | 1.971 | 6.365 | (B) |  |  |  |  | 
9 | CN1C2CCCC1CC(=NO)C2 [Compound 297, N-(9-methyl-9-azabicyclo[3.3.1]nonan-3-ylidene)hydroxylamine] | 0.188 | 0.344 | 0.094 | 0.281 | 5.025 | (D) |  |  |  |  | 
10 | COC(CSC)OC [Compound 301, 1,1-dimethoxy-2-methylsulfanylethane] | 0.03 | 0 | 0.939 | 0.152 | 6.236 | (D) |  |  |  |  | 
11 | COc1ccc(CCCCO)cc1 [Compound 306, 4-(4-methoxyphenyl)butan-1-ol] | 0.306 | 0.167 | 0.278 | 0.611 |  | (D) |  |  |  |  | 
12 | CCCC[N+](=O)[O-] [Compound 307, 1-nitrobutane] | 0.125 | 0.938 | 0.219 | 1.25 | 4.856 | (D) |  |  |  |  | 
13 | O/N=C\c1cccs1 [Compound 312, (NZ)-N-(thiophen-2-ylmethylidene)hydroxylamine] | 0.355 | 0 | 0.161 | 0.548 | 4.961 | (D) |  |  |  |  | 
14 | Nc1ccc2c(c1)OCCO2 [Compound 313, 2,3-dihydro-1,4-benzodioxin-6-amine] | 0.406 | 0.25 | 0.375 | 0.844 | 5.091 | (D) |  |  |  |  | 
15 | CC(C)(C)C(=O)C(C)(C)C [Compound 315, 2,2,4,4-tetramethylpentan-3-one] |  |  |  |  |  |  | 0 | 6.306 | 0.029 | 0.514 | (D)
16 | CN1CCCC(CO)C1 (centres unmarked) [Compound 316, (1-methylpiperidin-3-yl)methanol] | 0 | 0 | 0 | 0.412 | 5.871 | (A) |  |  |  |  | 
17 | CC1=NC(C)(C)CO1 [Compound 317, 2,4,4-trimethyl-5H-1,3-oxazole] | 0.29 | 0.742 | 0.097 | 0.645 | 4.623 | (D) |  |  |  |  | 
18 | CCOC(=O)C(=O)c1cccs1 [Compound 318, ethyl 2-oxo-2-thiophen-2-ylacetate] | 0.062 | 0 | 0.281 | 0.188 | 4.362 | (D) |  |  |  |  | 
19 | C#CC1(O)CCCCC1 [Compound 319, 1-ethynylcyclohexan-1-ol] | 0 | 0.111 | 0 | 0.528 |  | (C) |  |  |  |  | 

Row | Structure (SMILES) | Floral (odor evaluation panel; [2]) | Fruity (odor evaluation panel) | Spicy (odor evaluation panel; [3]) | Sweet (odor evaluation panel; [4]) | Pleasantness (odor evaluation panel; [5]) | Rating [1, 6] | Floral (odor evaluation panel) | Pleasantness (odor evaluation panel) | Spicy (odor evaluation panel) | Sweet (odor evaluation panel) | Rating [1]
20 | CCCCCOc1ccc(C=O)cc1 [Compound 320, 4-pentoxybenzaldehyde] | 0.469 | 0.625 | 0 | 0.625 | 4.025 | (D) |  |  |  |  | 
21 | C1=Cc2ccccc2C1 [Compound 321, 1H-indene] | 0.306 | 0 | 0 | 0.222 |  | (D) |  |  |  |  | 
22 | CCCC1=CC(=O)OC1O (centres unmarked) [Compound 322, 2-hydroxy-3-propyl-2H-furan-5-one] | 0 | 0.056 | 0 | 0.444 |  | (A) |  |  |  |  | 
23 | CC(C)(C)OC(=O)NCCCCCCN [Compound 324, tert-butyl N-(6-aminohexyl)carbamate] | 0.389 | 0.139 | 0.056 | 0.139 |  | (D) |  |  |  |  | 
24 | O=C1CCCCC1C1=CCCCC1 (centres unmarked) [Compound 327, 2-(cyclohexen-1-yl)cyclohexan-1-one] | 0.344 | 0.781 | 0.344 | 1.062 | 5.519 | (A) |  |  |  |  | 
25 | O=C(O)CCCC1CCCCC1 [Compound 330, 4-cyclohexylbutanoic acid] | 0.125 | 0.094 | 0.688 | 0.406 | 4.425 | (D) |  |  |  |  | 
26 | CC(C)(C)c1cccc(C(C)(C)C)n1 [Compound 332, 2,6-ditert-butylpyridine] | 0.207 | 0.793 | 0.517 | 0.759 | 4.421 | (B) |  |  |  |  | 
27 | COC(=O)[C@H]1COC(C)(C)O1 [Compound 335, methyl (R)-(+)-2,2-Dimethyl-1,3-dioxolane-4-carboxylate] | 0.562 | 0.719 | 0.125 | 1.406 | 5.797 | (D) |  |  |  |  | 
28 | CCC(O)(CC)CC [Compound 340, 3-ethylpentan-3-ol] | 0.031 | 0.156 | 0 | 0.531 | 5.025 | (B) |  |  |  |  | 
29 | C=CC(=O)OC1CCCCC1 [Compound 344, cyclohexyl prop-2-enoate] |  | 0.875 | 0.344 | 1.375 | 4.994 | (D) |  |  |  |  | 
30 | CCOC=C(C#N)C#N [Compound 349, 2-(ethoxymethylidene)propanedinitrile] | 0.625 | 0.188 | 0.281 | 0.562 | 4.794 | (D) |  |  |  |  | 
31 | CC(=O)Sc1ccccc1 [Compound 352, S-phenyl ethanethioate] | 0 | 0 | 0.406 | 0 | 2.697 | (A) |  |  |  |  | 
32 | CSC(=NC#N)SC [Compound 355, bis(methylsulfanyl)methylidenecyanamide] | 0 | 0 | 0.438 | 0 | 3.197 | (D) |  |  |  |  | 
33 | CCc1ccc(CO)cc1 [Compound 358, (4-ethylphenyl)methanol] | 0.125 | 0.062 | 0 | 0.438 | 3.331 | (E) |  |  |  |  | 
34 | CCOC(OCC)C(=O)c1ccccc1 [Compound 366, 2,2-diethoxy-1-phenylethanone] | 0.943 | 2.2 | 0 | 1.886 | 6.714 | (B) |  |  |  |  | 
35 | O=C(O)C=Cc1ccco1 [Compound 367, 3-(2-furyl)acrylic acid] | 0.062 | 0.312 | 0.094 | 0.625 | 4.716 | (D) |  |  |  |  | 
36 | O=C(O)C1(c2ccccc2)CC1 [Compound 368, 1-phenylcyclopropane-1-carboxylic acid] | 1.639 | 0 | 0.167 | 0.944 |  | (D) |  |  |  |  | 
37 | CC(=O)OCCN(C)C [Compound 370, 2-(dimethylamino)ethyl acetate] | 0 | 0 | 0.028 | 0 |  | (D) |  |  |  |  | 
38 | Nc1ccccc1CCO [Compound 373, 2-(2-aminophenyl)ethanol] | 0.562 | 0.25 | 0 | 0.594 | 5.078 | (D) |  |  |  |  | 
